Some of the results follow. These are further read-outs of the screen, such as a control signal, another cell line or another target. No call is given for them. Most of these compounds were active or inconclusive in the main read-out, so they are no random draw. Words in brackets tell the shape of the fitted curve; partial curves, single points and poor fits give uncertain potencies.
Assay: qHTS Assay to Find Inhibitors of Chronic Active B-Cell Receptor Signaling
Conditions: ABC-DLBCL IkBa-CBG/CBR reporter, luminescence ratio (green luciferase fused to IkBa over red control in TMD8 lymphoma cells), 4 h
How it was run: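 Concentration-response series (up to 46 uM) were applied to TMD8 dual-reporter cells for 4 h at 37C with doxycycline. Green/red ratio, after filter-overlap correction, defined %Activity; red signal alone was normalised to basal cells and zero luminescence.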

[1] = measured here: CBR red luminescence, cell number
[2] = measured here: IkBa-CBG green luminescence

SMILES	AC50 [1]	AC50 [2]
CCC[C@@H](O)c1cc2cc(OC)c(OC)cc2c(=O)o1	14.6 µM [rising, partial curve, poor fit]	–
O=C(CCC(=O)c1cccs1)NCc1cccnc1	12.6 µM [rising, single point]	–
CCN(CC)S(=O)(=O)c1cc(OC)c(Cl)cc1Cl	10.3 µM [rising, partial curve, poor fit]	–
CC(=O)Nc1ccc(S(=O)(=O)NC2(C(F)(F)F)NC(=O)N(C3CCCCC3)C2=O)cc1 (stereo unspecified)	13 µM [falling, partial curve, poor fit]	–
CC(=O)c1c(-c2ccc(C)cc2)nc2c3ccccc3ccn12	7.94 µM [rising, partial curve, poor fit]	–
COC(=O)c1sc(=S)n(-c2ccccc2)c1N	18.4 µM [rising, partial curve, poor fit]	–
Cc1nn(-c2ccccc2)c2nc(-c3ccncc3)cc(C(=O)NCc3ccco3)c12	15.8 µM [falling, partial curve, poor fit]	–
COC(=O)c1ccccc1NC(=O)CSc1nc(Nc2ccccc2)nc(N2CCOCC2)n1	7.08 µM [falling, full curve]	–
Cc1cc(NC(=O)CSc2ncc(C(=O)Nc3ccc(Cl)cc3)c(=O)n2C)no1	22.4 µM [falling, single point]	–
Cc1sc(NC(=O)c2ccco2)nc1-c1ccc2c(c1)CC(C)N2C(=O)C1CC1 (stereo unspecified)	35.5 µM [falling, single point]	–
COc1cccc(-c2nnc(SC(C(=O)c3c[nH]c4ccccc34)c3ccccc3)n2C)c1 (stereo unspecified)	20.6 µM [falling, single point]	–
CCOc1ccc(NC(=O)c2ccccn2)cc1	3.66 µM [falling, partial curve]	–
Cc1ccc(Cl)cc1NC(=S)N1CCC(c2ccccc2)C1 (stereo unspecified)	35.5 µM [falling, single point]	–
O=C(Cc1noc2ccccc12)NNC(=S)Nc1ccccc1	17.8 µM [falling, single point]	–
CCCn1cc(C(CC(=O)O)C(=O)O)c2ccccc21 (stereo unspecified)	29.1 µM [falling, single point]	–
COC(=O)COc1ccc(S(=O)(=O)Nc2ccc(NC(C)=O)cc2)cc1	35.5 µM [rising, single point]	–
Cc1cccc(N2C(=O)N3[C@@H]4c5ccccc5OC[C@@H]4[C@@H](c4ccccc4)[C@@]3(C)C2=O)c1	11.2 µM [falling, single point]	–
COc1ccc(-c2oc3ccccc3c2C(=O)Oc2ccccc2)cc1	35.5 µM [rising, single point]	–
O=C(NC1CCCCCCC1)c1c(O)c2ccccc2[nH]c1=O	0.411 µM [rising, full curve, poor fit]	–
O=C(Cn1ncc(Cl)c(Cl)c1=O)N1CCN(S(=O)(=O)c2ccc3ccccc3c2)CC1	6.51 µM [falling, full curve, poor fit]	9.2 µM [rising, partial curve, poor fit]
O=C(Nc1ccccc1C(=O)N1CCCC1)c1ccc(Cl)c([N+](=O)[O-])c1	20 µM [falling, partial curve]	–

Fetched one by one from above (two):
SMILES	AC50 [1]	AC50 [2]
CC(=O)Nc1ccc(S(=O)(=O)NC2(C(F)(F)F)NC(=O)N(C3CCCCC3)C2=O)cc1 (stereo unspecified)	13 µM [falling, partial curve, poor fit]	–
CC(=O)c1c(-c2ccc(C)cc2)nc2c3ccccc3ccn12	7.94 µM [rising, partial curve, poor fit]	–

The list continues.

SMILES	AC50 [1]	AC50 [2]
O=C(/C=C/c1ccc(S(=O)(=O)N2CCOCC2)cc1)NC(=S)NCCCn1ccnc1	35.5 µM [falling, single point]	–
CNC(=O)c1[nH]cnc1C(=O)Nc1ccccc1OC	0.13 µM [falling, full curve]	–
Nc1nc(SCC(=O)Nc2ccccc2)nc2nc3c(cc12)CCCC3	25.9 µM [falling, single point]	–
C=CCNC(=S)N/N=C/c1ccccc1OCCOc1ccccc1	35.5 µM [rising, single point]	–
CSc1ccccc1NC(=O)c1ccc(N2CC3CC(C2)c2cccc(=O)n2C3)c(NC(=O)c2ccncc2)c1 (stereo unspecified)	0.631 µM [rising, full curve, poor fit]	–
COc1ccc(CCNC(=O)Nc2cccs2)c(OC)c1	17.8 µM [rising, single point]	–
O=C(N/N=C/c1ccccc1)c1[nH]ncc1Br	5.01 µM [falling, full curve]	–
Cc1cc(=O)[nH]c(SCC2COC3(CCCCC3)O2)n1 (stereo unspecified)	29.1 µM [falling, single point]	–
CC1CCN(S(=O)(=O)c2ccc(NC(=O)Cn3nnc(-c4ccccc4F)n3)cc2)CC1	35.5 µM [rising, single point]	–
COc1cc(C2Nc3ccccc3C(=O)N2c2ccccc2)ccc1O (stereo unspecified)	0.112 µM [falling, full curve, poor fit]	–
COc1ccc(CC(=O)NCc2ccc3c(c2)CCN3C(C)=O)cc1	10 µM [rising, partial curve, poor fit]	–
Brc1ccc(OCc2nc(-c3ccccn3)n[nH]2)cc1	16.4 µM [falling, partial curve]	–
C/C(CC(=O)Nc1ccc(C)c(Cl)c1)=N\NC(=O)c1ccncc1	35.5 µM [falling, single point]	–
CSc1nnc(NC(=O)c2ccco2)s1	10 µM [falling, single point]	–
CCCCCCNC(=O)CC(NS(=O)(=O)c1ccc(NC(C)=O)cc1)C(C)C (stereo unspecified)	12.6 µM [rising, partial curve, poor fit]	–
CC(C)(C)OC(=O)[C@H]1[C@H](c2ccc([N+](=O)[O-])cc2)C2(C(=O)c3ccccc3C2=O)C2c3ccccc3C=NN21 (stereo partly specified)	5.8 µM [rising, full curve, poor fit]	–
O=C1C=C(O)CC(c2ccc(Cl)c(Cl)c2)C1 (stereo unspecified)	18.4 µM [rising, partial curve, poor fit]	–
CC(=O)c1cccc(NC(=O)C(=O)c2cn(CC(=O)N3CCCCC3)c3ccccc23)c1	0.891 µM [falling, full curve]	–
CC1(C)C(c2cccs2)=[N+]([O-])C2(CCCCC2=O)N1O (stereo unspecified)	17.8 µM [falling, partial curve, poor fit]	–
COc1ccc(-c2cc(-c3ccccc3)nc(Cl)n2)cc1OC	6.31 µM [falling, partial curve, poor fit]	–
O=C(Nc1ccc(N2CCN(C(=O)c3ccc(Cl)cc3)CC2)cc1)c1ccc2c(c1)OCCO2	1.84 µM [falling, partial curve, poor fit]	–

SMILES	AC50 [1]	AC50 [2]
COc1ccc(/C=N/NC(=O)c2ccccc2O)cc1COc1ccccn1	7.94 µM [falling, partial curve, poor fit]	–
O=C(NCc1ccco1)C1CC(=O)N(c2ccc(F)cc2)C1 (stereo unspecified)	5.17 µM [rising, full curve]	–
Cc1cc(Nc2nc(Cl)c(Cl)cc2Cl)n(-c2ccccc2)n1	14.6 µM [rising, single point]	–
COc1cc(/C=N/NC(=S)Nc2cccnc2)cc(OC)c1OC	12.6 µM [falling, partial curve]	7.94 µM [falling, partial curve]
NS(=O)(=O)c1cc(C(=O)NCC2CCCCC2)ccc1Cl	2.82 µM [rising, full curve, poor fit]	–
O=C(CCn1c2c(c3ccccc31)CCCC2)NNC(=O)c1ccc([N+](=O)[O-])cc1	20.6 µM [falling, single point]	–
COc1ccc(C2C(C(=O)OCC(=O)NC(C)(C)C)CCC(=O)N2c2ccc(C)cc2)cc1OC (stereo unspecified)	0.00461 µM [rising, full curve, poor fit]	–
CC(=O)/C(C#N)=C1\NC(=O)C(Cc2ccc(C)c(Cl)c2)S1 (stereo unspecified)	8.91 µM [rising, partial curve, poor fit]	–
COc1ccc(OCc2ccc(/C=N\NC(=O)c3sccc3C)o2)cc1	6.31 µM [falling, full curve]	–
CC(=O)Nc1ccc(Oc2ncccn2)c(Cl)c1	2.06 µM [rising, partial curve, poor fit]	–
CC(=O)Oc1cccc(N2C(=O)c3cccc4c([N+](=O)[O-])ccc(c34)C2=O)c1	20 µM [rising, partial curve, poor fit]	–
O=C1NC(=O)c2cc(NC(=O)C3CCCCC3)ccc21	16.4 µM [falling, single point]	–
O=C1Nc2ccc(Cl)cc2/C1=C/C1CC=CCC1 (stereo unspecified)	29.1 µM [falling, single point]	18.4 µM [falling, partial curve, poor fit]
CCN1CCN(c2nc3sc4c(c3c3ncnn23)CC(C)CC4)CC1 (stereo unspecified)	35.5 µM [rising, single point]	–
CC1(C)OC(c2ccccc2)=C/C(=C/C=C2C(=O)c3ccccc3C2=O)O1	15.8 µM [rising, partial curve]	–
Cc1ccc(C(=O)O/N=C/c2c(C)nn(C)c2Cl)cc1	11.2 µM [rising, partial curve]	–
O=c1[nH]c(CN2CCN(c3ccccc3O)CC2)nc2scc(-c3ccccc3Cl)c12	35.5 µM [falling, single point]	–
COc1ccccc1NNC(=O)c1cc(C(C)(C)C)nn1Cc1ccccc1	0.708 µM [falling, full curve, poor fit]	–
Cc1cc(C)n(-c2nc(-c3ccc(Cl)c(Cl)c3)cs2)n1	4.47 µM [rising, partial curve, poor fit]	–
CCCCOc1ccccc1-c1ccccc1CN1[C@@H](C(C)C)COCCS1(=O)=O	16.4 µM [falling, partial curve]	–
Cc1occc1C(=O)N/N=C/c1ccc(Br)s1	10 µM [falling, partial curve]	–

— PubChem BioAssay AID493014 (National Center for Advancing Translational Sciences (NCATS), 2011)
